Laboratory results from US20040058983A1, “Plan-derived and synthetic phenolic compounds and plant extracts, effective in the treatment and prevention of chlamydial infections” (priority 2000, published 2004).
The name of at least one read-out is uncertain.

Test system: C. pneumoniae
Experiment: Direct anti-chlamydial effect of compounds and mixtures on C. pneumoniae (Example 5)
Assay type: cell-based
Experimental: Direct Anti-Chlamydial Effect of Plant-Derived Phenolic Compounds, Certain Synthetic Compounds and Mixtures on C. pneumoniae
The concentration used was 50 μM.
The cultivated HL cells are infected with C. pneumoniae EB's. The EB's which have invaded the cell are changed into the metabolically active reticulate body (RB) which are dividing by binary fission in the endosome vacuole or inclusion.
After a certain time (about 72 hr) the C. pneumoniae RB's are condensing back into EB's, after which the inclusions are broken, the host cells are broken and the EB's are liberated. In this method the intention is to verify the inclusions before the breaking up of the host cells.
On the day preceding the infection the host cells are inoculated on a 24-well plate: the cells are harvested by trypsinisation, they are suspended in ca. 5 ml of the nutrition liquid and counted in a Burker's chamber. Each well are seeded using a concentration of 250000-400000 cells/well for cultivation. Before the addition of the cells to the well is if necessary round cover glass (diameter 13 mm) put for staining. […]
The nutrition medium, which is above the cover glass left for staining, is aspirated away. […] When viewed under the fluorescent microscope, cell culture specimens infacted with chlamydiae show a characteristic apple-green fluorescence of inclusions against a red counterstained background.

CCCCCCCCOC(=O)c1cc(O)c(O)c(O)c1 [Octyl gallate]
Inhibition % (dilution 1/10): 53%
Inhibition % (dilution 1/100): 17%
